# Results of single-concentration screens

The chains behind the UniProt entries cited, without tags or fusion partners. Residues count along the entry.
UniProt P9WPC5, whole entry: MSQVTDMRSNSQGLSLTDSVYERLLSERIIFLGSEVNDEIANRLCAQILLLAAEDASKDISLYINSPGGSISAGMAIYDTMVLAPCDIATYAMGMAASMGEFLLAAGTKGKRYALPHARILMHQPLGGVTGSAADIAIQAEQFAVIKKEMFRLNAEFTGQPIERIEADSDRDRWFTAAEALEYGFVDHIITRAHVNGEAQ
UniProt P9WPC3, whole entry partner: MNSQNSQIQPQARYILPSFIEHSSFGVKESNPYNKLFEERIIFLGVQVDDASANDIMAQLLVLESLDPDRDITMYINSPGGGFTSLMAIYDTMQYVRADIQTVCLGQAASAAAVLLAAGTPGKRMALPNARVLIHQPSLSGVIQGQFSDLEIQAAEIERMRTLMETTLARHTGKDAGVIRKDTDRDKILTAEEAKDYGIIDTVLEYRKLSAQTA
UniProt Q8IDJ8, 1-583: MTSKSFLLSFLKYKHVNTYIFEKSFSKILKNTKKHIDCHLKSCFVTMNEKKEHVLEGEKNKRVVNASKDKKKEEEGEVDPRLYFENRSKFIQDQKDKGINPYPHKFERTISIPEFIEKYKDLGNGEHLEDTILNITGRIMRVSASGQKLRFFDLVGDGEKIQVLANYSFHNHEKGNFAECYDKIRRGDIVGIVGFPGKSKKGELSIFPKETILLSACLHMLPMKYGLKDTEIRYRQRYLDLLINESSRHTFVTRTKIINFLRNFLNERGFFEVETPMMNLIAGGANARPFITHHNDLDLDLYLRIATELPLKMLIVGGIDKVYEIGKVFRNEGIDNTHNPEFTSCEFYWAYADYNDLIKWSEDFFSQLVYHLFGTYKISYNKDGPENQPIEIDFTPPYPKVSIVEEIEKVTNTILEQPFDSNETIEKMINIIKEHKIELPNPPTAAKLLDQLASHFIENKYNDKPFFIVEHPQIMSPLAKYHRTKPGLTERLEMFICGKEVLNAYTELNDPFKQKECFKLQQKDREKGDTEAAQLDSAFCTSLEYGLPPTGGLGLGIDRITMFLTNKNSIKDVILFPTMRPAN
UniProt P9WFT3, whole entry: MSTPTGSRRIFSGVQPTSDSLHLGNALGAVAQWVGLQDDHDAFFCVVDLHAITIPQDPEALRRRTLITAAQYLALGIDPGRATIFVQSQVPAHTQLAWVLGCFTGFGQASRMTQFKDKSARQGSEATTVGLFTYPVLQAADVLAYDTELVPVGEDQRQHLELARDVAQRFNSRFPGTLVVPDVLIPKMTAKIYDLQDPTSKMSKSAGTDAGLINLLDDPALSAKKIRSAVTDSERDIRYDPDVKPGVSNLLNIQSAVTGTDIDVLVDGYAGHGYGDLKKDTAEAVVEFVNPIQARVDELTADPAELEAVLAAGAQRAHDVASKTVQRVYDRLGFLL
UniProt A4I591, 1-473: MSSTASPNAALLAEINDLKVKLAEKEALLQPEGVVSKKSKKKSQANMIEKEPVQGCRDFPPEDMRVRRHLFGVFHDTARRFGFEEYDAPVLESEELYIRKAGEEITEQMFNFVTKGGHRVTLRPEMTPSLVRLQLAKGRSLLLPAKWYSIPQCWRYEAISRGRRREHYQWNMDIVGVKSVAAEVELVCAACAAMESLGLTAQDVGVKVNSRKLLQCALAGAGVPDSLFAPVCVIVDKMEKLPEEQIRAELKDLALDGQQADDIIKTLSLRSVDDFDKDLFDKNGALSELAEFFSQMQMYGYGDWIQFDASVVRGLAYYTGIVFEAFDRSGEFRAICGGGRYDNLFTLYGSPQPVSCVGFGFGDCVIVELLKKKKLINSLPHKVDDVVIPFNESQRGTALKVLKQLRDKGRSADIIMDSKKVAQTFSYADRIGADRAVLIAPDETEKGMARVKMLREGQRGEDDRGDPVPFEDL
UniProt Q4DA54, 1-478: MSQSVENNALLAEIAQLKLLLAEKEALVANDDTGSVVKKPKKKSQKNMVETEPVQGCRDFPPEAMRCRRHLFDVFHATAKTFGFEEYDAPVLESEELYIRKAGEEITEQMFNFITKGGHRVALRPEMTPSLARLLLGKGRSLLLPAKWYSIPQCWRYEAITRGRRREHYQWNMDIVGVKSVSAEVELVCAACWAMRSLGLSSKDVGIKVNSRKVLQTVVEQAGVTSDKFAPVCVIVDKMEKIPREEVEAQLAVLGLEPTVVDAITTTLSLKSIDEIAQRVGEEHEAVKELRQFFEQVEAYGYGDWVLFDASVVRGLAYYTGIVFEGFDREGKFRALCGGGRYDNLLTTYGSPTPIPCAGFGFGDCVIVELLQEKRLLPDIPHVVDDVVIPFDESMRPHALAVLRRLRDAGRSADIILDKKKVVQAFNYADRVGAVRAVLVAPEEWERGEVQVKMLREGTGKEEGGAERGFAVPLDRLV

Measurements from “University of Dundee, Small-Polar-MMV Screening Library” (2021), ChEMBL document CHEMBL3988442.

Results are given as percent effect.
The controls that fix the scale are not given in the record; negative values are as filed.
The compounds are a random part of those screened.
Two or more numbers in one place are separate tests of the same structure; such repeats can differ widely.
A dash means the value is not listed here; it may have been measured.

ClpP1P2: 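Protease assay of ClpP1P2, read by the AMC dye that it sets free. Target: ClpP1P2, Mycobacterium tuberculosis (UniProt P9WPC5 and UniProt P9WPC3). Concentration: 50 µM. Higher reads as stronger inhibition, judged from the few compounds that gave an IC50. Most other retested compounds had strongly negative values. Size under these conditions: about 69,000 compounds, about 10 of them at 50% or above in at least one test.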
PfKRS1: 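Enzyme assay of the cytosolic lysyl-tRNA synthetase in 384-well plates, read by luminescence. Target: Lysine-tRNA ligase, Plasmodium falciparum 3D7 (UniProt Q8IDJ8). Compounds at 30 µM. Higher reads as stronger inhibition, judged from the few compounds that gave an IC50. About 69,000 compounds were tested under these conditions; 0.071% (about 49) showed 50% or more at least once.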
MtTrpRS: 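Tryptophan-tRNA ligase, Mycobacterium tuberculosis (UniProt P9WFT3). Enzyme assay of tryptophanyl-tRNA synthetase; the read-out is not stated. Tested at 10 µM. Direction is not recorded; retested compounds ran higher, which suggests that high means inhibition. Of about 65,000 compounds tested this way, about 64 (0.098%) reached 50% or more in at least one test.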
LiHisRS: 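Histidine-tRNA ligase, Leishmania infantum (UniProt A4I591). Enzyme assay of histidyl-tRNA synthetase; the read-out is not stated. Concentration: 30 µM. The record gives no direction; compounds that gave an IC50 in retests scored well above the rest, so higher reads as stronger inhibition. The assay is labelled LdHisRS but filed under L. infantum. About 69,000 compounds were tested under these conditions; 0.6% (about 410) showed 50% or more at least once.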
TcHisRS: 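Enzyme assay of histidyl-tRNA synthetase; the read-out is not stated. Target: Histidine-tRNA ligase, Trypanosoma cruzi CL Brener (UniProt Q4DA54). Tested at 30 µM. Direction is inferred from retests: higher values go with stronger inhibition. Size under these conditions: about 69,000 compounds, about 31 of them at 50% or above in at least one test.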
Leishmania in macrophages: 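Cell assay of Leishmania donovani living inside macrophages; the read-out is not stated. Concentration: 30 µM. Direction is inferred from retests: higher values go with stronger inhibition. Size under these conditions: about 69,000 compounds, about 1,000 of them at 50% or above in at least one test.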

| structure | ClpP1P2 | PfKRS1 | MtTrpRS | LiHisRS | TcHisRS | Leishmania in macrophages |
|---|---|---|---|---|---|---|
| `CCOCC1CN(C(=O)c2ccoc2)Cc2nn(C)cc21` (stereo unspecified) | -13.27 | 4.612 | -3.906 | 28.57 | 4.902 | 27.24 |
| `FC(F)(F)c1[nH]nc2c1CN(Cc1ccccc1)CC2` | -1.228 | 5.52 | -1.816 | 7.018 | 5.882 | 19.56 |
| `O=C1COC2(CCN(Cc3cccnc3)CC2)CN1` | -10.7 | 2.652 | 2.213 | 41.03 | 4.878 | - |
| `CC(=O)NCC(=O)N1CCOCC(Cc2ccc3c(ccn3C)c2)C1` (stereo unspecified) | -15.97 | 1.302 | -7.388 | 7.042 | 3.03 | 40.82 |
| `Cc1oc(C(=O)O)cc1S(=O)(=O)Nc1cc(Br)ccc1F` | 0.939 | -0.7477 | -1.461 | 0 | 0 | 10.72 |
| `O=C1CC[C@H]2[C@H](CCN2c2ccccn2)N1CC1CCOCC1` | -2.71 | 7.211 | 1.647 | 22.22 | 4.908 | - |
| `CC(NC(=O)N(C)Cc1ccsc1)c1ccc2c(c1)OCO2` (stereo unspecified) | 9.925 | 3.65 | -4.717 | 21.6 | 0.3802 | 29.16 |
| `Cc1cc(CN2CCN(C(=O)NC(C)c3cccnc3)CC2)no1` (stereo unspecified) | -30.37 | -0.1083 | -7.47 | 23.21 | 7.101 | 27.74 |
| `CC(=O)N1CCN(c2cc(C3CCNCC3)ccn2)CC1.Cl.Cl` | - | - | - | - | - | -8.562 |
| `CCN1CC(C(=O)NCc2ccccc2-n2cccn2)CC1=O` (stereo unspecified) | 11.03 | 3.121 | -4.769 | 10.67 | -3.396 | 21.45 |
| `CCCNC(=O)CCC(=O)Nc1ccc(-n2cncn2)c(F)c1` | 12.94 | -1.176 | -2.516 | 12 | 0.3802 | -19.65 |
| `C=C(C)COc1ccccc1NC(=O)NC1CCOCC1` | -2.111 | 3.594 | 1.312 | 12.68 | 7.006 | 20.24 |
| `Cc1ccc(-c2nc(CNc3ccc(C(N)=O)c(C)c3)cs2)o1` | 5.184 | 1.399 | -1.971 | 7.895 | 3.448 | 22.31 |
| `Cc1cc(C(C)(O)CNC(=O)C2(C)CCCC2)c(C)o1` (stereo unspecified) | 3.149 | 1.794 | -3.964 | 15.52 | 5.759 | -14.49 |
| `Cc1cc(C)c(CNC(=O)N2CCNC(=O)C2)c(=O)[nH]1` | -12.33 | 1.828 | -4.464 | 4.839 | 0 | 5.534 |
| `COCC(=O)N1CCCn2c(CN3CCOCC3)nnc2C1` | 7.718 | 3.981 | 2.532 | 26.6 | 13.07 | - |
| `O=C(N1CCCCC1)N1CCN(CC(O)c2ccccc2)CC1` (stereo unspecified) | -7.58 | 0.6986 | -7.025 | 16.36 | 5.263 | -7.195 |
| `CC(CNC(=O)C1(c2ccc(F)cc2)CC1)CN1CCCC1=O` (stereo unspecified) | 4.205 | 3.65 | 11.6 | 20.59 | -1.587 | -18.61 |
| `CC1=Nc2c(c(=O)[nH]n2C2CCCCC2)C(c2cccnc2)S1` (stereo unspecified) | -6.054 | 9.376 | 3.732 | 27.17 | 0.9901 | 3.338 |
| `Cc1ncc(C(=O)N2CCOC(C(=O)N3CCCCCC3)C2)c(C)n1` (stereo unspecified) | 2.18 | 1.655 | 4.765 | 9.79 | 1.13 | - |
| `CC(C)c1nc(C2CCCN2CCS(C)(=O)=O)no1` (stereo unspecified) | -11.29 | 4.937 | 1.377 | 8.434 | 4.478 | 39.49 |
| `CC(C)(C)c1nc(NS(=O)(=O)c2ccc(F)cc2)no1` | -8.966 | 2.56 | 0.7424 | 9.756 | 4.327 | 8.274 |
| `Cc1cn[nH]c1C1COCCN1Cc1ccsc1` (stereo unspecified) | -13.69 | 0.6635 | -3.59 | 8.392 | 1.13 | -27.78 |
| `CCC(C)c1cc(C(=O)N(CC(=O)NC)c2cccc(F)c2)on1` (stereo unspecified) | 22.96 | -7.349 | -7.236 | -3.297 | -2.062 | -4.494 |
| `CCOCCCNC(=O)C1(C)CCC(=O)N1c1ccccc1F` (stereo unspecified) | -12.07 | 0.3619 | -3.732 | 6.849 | 3 | 0.5282 |
| `CC(C)c1nsc(N2CCS(=O)(=O)CC2)n1` | -1.721 | 2.295 | 5.982 | 10.84 | 4.878 | -47.64 |
| `CCOc1ccc(Cl)cc1CCNC(=O)Cn1nc(C)ccc1=O` | -12.41 | -1.112 | 4.218 | 12.39 | 0.8929 | 14.01 |
| `Cc1ccccc1-c1ncc(CNCc2csc(C(C)C)n2)s1` | 2.994 | 1.834 | 1.273 | 20 | 7.955 | 19.12 |
| `COCC(=O)N1CCc2ccccc2C12CCNCC2.Cl` | - | - | - | - | - | -18.2 |
| `Cc1nnc(N2C[C@@H](Oc3ccccn3)[C@H]3OCCC[C@H]32)s1` | 9.539 | 2.328 | -1.144 | 21.62 | -1.493 | - |
| `Cc1ccc(C(=O)N2CC[C@@]3(O)CCCC[C@H]3C2)cc1` | 7.587 | -1.503 | -1.331 | -7.895 | 1.754 | - |
| `COc1cccc(C(=O)N2CCCC(CNS(C)(=O)=O)C2)c1` (stereo unspecified) | -12.22 | 0.8963 | -2.401 | 11.4 | 5.523 | -0.5306 |
| `Cc1cc(C(=O)N2CCc3nc(N4CCCC4)nc(C)c3CC2)c(C)o1` | 3.39 | 2.762 | - | 29.7 | 23.62 | 44.41 |
| `CC1(C)CN(C(=O)CC2CCS(=O)(=O)CC2)C[C@]1(C)O` | -4.648 | 1.65 | -1.68 | 1.333 | 0.578 | 17.37 |
| `[H][C@@]12OCCN(C(=O)c3nn(C)c4ccccc34)[C@@]1([H])CC[C@@H]2OC` | - | - | - | - | - | 2.025 |
| `CC(C)(C)c1n[nH]cc1CNC1CCC(C(F)(F)F)CC1.Cl` (stereo unspecified) | - | - | - | - | - | -4.401 |
| `CC1CCN(CC2CCN(C(=O)c3c[nH]c4ncccc34)CC2)CC1` | 0.7335 | 3.28 | -3.715 | 12.5 | 7.895 | 11.66 |
| `NC(=O)C(CNC(=O)Cc1ccsc1)Cc1ccc(F)cc1` (stereo unspecified) | -5.471 | 2.593 | -0.2935 | 20.22 | 10.55 | 32.76 |
| `COc1ncc(-c2ccc(NC(C)=O)cc2)c(OC)n1` | -1.481 | 2.096 | -2.976 | 0 | 11.44 | 5.344 |
| `O=C(O)C(F)(F)F.[H][C@]12CN(CCc3ccccc3)C[C@@]1([H])S(=O)(=O)CC[C@@H]2C(=O)NC1CCC1` | - | - | - | - | - | -9.544 |
| `CN1CCCC1c1ccnc(C(=O)N(C)C2CCCCC2)c1` (stereo unspecified) | -9.553 | -0.02282 | - | 8 | 5.243 | -1.341 |
| `CCc1nc2n(n1)CC(NCc1nc(-c3ccccn3)no1)CC2` (stereo unspecified) | -14.24 | 0.1635 | -3.483 | -3.67 | 0.2915 | -15.89 |
| `C[C@@H]1CN(C(=O)[C@H]2CCCO2)C[C@]12CCN(c1ccsc1)C2=O` | -7.93 | -6.986 | -3.909 | 4 | 0.9804 | 28.22 |
| `c1cc(CN2CC[C@@H]3CN(c4cnccn4)C[C@@H]3C2)ccn1` | -17.27 | 2.252 | - | 11.88 | 2.513 | - |
| `COCC[C@]1(O)CCN(Cc2nnc(C)s2)C[C@H]1C` | -8.605 | -2.548 | -2.917 | 6.452 | 5.699 | -4.26 |
| `Cc1ccc2c(c1C)OCC2NCc1ccc(C#N)cc1` (stereo unspecified) | -8.693 | 0.01147 | 8.583 | 19.18 | 4.762 | -73.79 |
| `c1cnnc(N2CCCC(NCc3cccc4c3OCO4)C2)c1` (stereo unspecified) | -9.866 | 1.697 | 0.7607 | 10 | 0 | -24.88 |
| `NC(=O)C1CCN(C(=O)NCc2ccccc2Cn2ccnc2)CC1` | -3.69 | 2.191 | -0.8614 | 4.839 | 4.124 | 19.62 |
| `CC(C)CC(=O)Nc1cccc(CNCc2cccs2)c1` | -7.949 | 2.178 | -2.225 | 16.51 | 6.706 | 39.65 |
| `c1cc(-c2c[nH]nc2C2CCCCC2)nc(N2CCCCCC2)n1` | 14.97 | 4.393 | - | 37.14 | 9.04 | 45.37 and 24.71 |
| `Cc1cnn(CC2CCCN2C(=O)c2cn(-c3ccccc3)nc2C)c1` (stereo unspecified) | 2.898 | 8.019 | 0.7042 | 11.9 | 7.519 | 21.18 |
| `N[C@H]1CN(C(=O)Cc2ccc(Cl)c(Cl)c2)C[C@@H]1C1CC1` | -8.045 | 0.5576 | 1.987 | 26.37 | 7.831 | 27.76 |

Repeated from the top, 5 entries:

structure	ClpP1P2	PfKRS1	MtTrpRS	LiHisRS	TcHisRS	Leishmania in macrophages
CCOCC1CN(C(=O)c2ccoc2)Cc2nn(C)cc21 (stereo unspecified)	-13.27	4.612	-3.906	28.57	4.902	27.24
FC(F)(F)c1[nH]nc2c1CN(Cc1ccccc1)CC2	-1.228	5.52	-1.816	7.018	5.882	19.56
O=C1COC2(CCN(Cc3cccnc3)CC2)CN1	-10.7	2.652	2.213	41.03	4.878	-
CC(=O)NCC(=O)N1CCOCC(Cc2ccc3c(ccn3C)c2)C1 (stereo unspecified)	-15.97	1.302	-7.388	7.042	3.03	40.82
Cc1oc(C(=O)O)cc1S(=O)(=O)Nc1cc(Br)ccc1F	0.939	-0.7477	-1.461	0	0	10.72